# No constants are given. Whether binding was seen depends on the method and setting. Some binding calls cover weakened binding; strength is not graded here.
# B1: antibody HE06642 as IgG1 molecule (antibody, V domains shown)
# VH: EVQLVESGGGLVQPGGSLRLSCAVSGFTFSSYGMSWVRQAPGKGLEWVATVSSGGTYTYYPDSVKGRFTISRDNSKNTLYLQMNSLRAEDTAVYYCARHRGNYYATYYYAMDYWGQGTLVTVSS
# VL: DIVLTQSPDSLAVSLGERATINCKASKSVSTSGYTYMHWYQQKPGQPPKLLIYLASNRESGVPDRFSGSGSGTDFTLTISPVQAEDVATYYCQHSGELPPSFGQGTKLEIKR
# Target: T1, rhesus monkey PRLR expressed on cells (rhesus monkey, UniProt F7HIU9 25-619)
# T1 sequence: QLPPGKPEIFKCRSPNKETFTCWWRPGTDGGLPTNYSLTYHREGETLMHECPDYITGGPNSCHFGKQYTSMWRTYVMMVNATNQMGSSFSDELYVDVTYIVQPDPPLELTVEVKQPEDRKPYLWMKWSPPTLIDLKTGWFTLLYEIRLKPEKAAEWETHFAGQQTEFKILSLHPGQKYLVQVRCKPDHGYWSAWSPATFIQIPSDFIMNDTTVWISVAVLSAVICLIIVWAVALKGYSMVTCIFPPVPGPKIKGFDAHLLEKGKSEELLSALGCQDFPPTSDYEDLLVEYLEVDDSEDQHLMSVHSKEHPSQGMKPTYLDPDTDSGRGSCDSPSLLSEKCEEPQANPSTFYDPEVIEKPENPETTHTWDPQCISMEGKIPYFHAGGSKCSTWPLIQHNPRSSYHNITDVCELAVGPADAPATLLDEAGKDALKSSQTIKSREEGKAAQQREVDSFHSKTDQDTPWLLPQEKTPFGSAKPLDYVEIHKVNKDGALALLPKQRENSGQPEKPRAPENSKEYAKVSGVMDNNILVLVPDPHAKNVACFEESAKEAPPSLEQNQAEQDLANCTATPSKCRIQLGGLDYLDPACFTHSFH
# Assay: flow cytometry on BaF3 cells stably transfected with rhesus monkey PRLR
binder,measurement,value
B1,binding,binds
